Source: ChEMBL document CHEMBL6127131, “Design, Synthesis, and Biological Evaluation of New Selective PDE4 Inhibitors for Topical Treatment of Psoriasis” (J Med Chem, 2024)

Protein sequences, listed by entry. Tags and fused reporters are not part of them. Lines headed by an entry give the natural chain unless they say otherwise; changes in a name come on top.
UniProt Q12809: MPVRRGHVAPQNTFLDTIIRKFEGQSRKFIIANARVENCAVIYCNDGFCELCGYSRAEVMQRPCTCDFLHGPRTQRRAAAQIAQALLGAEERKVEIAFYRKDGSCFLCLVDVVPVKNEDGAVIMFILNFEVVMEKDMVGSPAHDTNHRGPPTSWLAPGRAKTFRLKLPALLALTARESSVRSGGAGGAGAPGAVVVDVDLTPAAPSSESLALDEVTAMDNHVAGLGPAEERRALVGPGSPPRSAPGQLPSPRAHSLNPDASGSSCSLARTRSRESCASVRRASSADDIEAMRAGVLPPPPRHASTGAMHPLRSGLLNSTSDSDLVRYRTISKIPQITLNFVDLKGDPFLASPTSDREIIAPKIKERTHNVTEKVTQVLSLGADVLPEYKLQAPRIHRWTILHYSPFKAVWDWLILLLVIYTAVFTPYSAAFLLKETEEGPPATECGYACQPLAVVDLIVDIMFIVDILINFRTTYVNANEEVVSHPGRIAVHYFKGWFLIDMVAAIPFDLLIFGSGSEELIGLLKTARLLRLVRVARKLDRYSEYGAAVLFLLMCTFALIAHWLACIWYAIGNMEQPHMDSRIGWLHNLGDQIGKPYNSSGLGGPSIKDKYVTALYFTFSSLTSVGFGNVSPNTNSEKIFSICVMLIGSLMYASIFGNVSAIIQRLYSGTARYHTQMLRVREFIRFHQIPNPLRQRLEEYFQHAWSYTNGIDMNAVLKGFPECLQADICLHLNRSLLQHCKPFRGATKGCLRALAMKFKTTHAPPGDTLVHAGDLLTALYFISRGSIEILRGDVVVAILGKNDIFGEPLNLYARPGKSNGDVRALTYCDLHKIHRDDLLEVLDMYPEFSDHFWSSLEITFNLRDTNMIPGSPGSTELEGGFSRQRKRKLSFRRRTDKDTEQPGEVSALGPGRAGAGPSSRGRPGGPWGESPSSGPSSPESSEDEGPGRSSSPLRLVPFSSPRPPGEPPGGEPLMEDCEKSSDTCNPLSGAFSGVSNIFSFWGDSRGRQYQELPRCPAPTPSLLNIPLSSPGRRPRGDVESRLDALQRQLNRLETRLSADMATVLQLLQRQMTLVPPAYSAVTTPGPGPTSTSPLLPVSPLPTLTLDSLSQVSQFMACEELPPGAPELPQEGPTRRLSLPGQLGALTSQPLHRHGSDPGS

Biological target: Voltage-gated inwardly rectifying potassium channel KCNH2 (Homo sapiens, UniProt Q12809)

In the case of O=C(NCc1ncccn1)c1csc(-c2ccc(OC(F)F)c(OCC3CC3)c2)n1, the IC50 is reported as 11.6 µM.
